Test results taken from patent US9187431B2, “Substituted phenyl(oxy/thio)alkanol derivatives” (Bayer Intellectual Property GMBH, priority 2009, dated 2015).
Some results were stated once for a whole list of compounds, not compound by compound.

Assays:
Sphaerotheca fitliginea = assay: Sphaerotheca test (cucumber)/protective; assay type: in vivo, Sphaerotheca fitliginea on cucumber; conditions: 500 ppm active compound, protective, evaluation 7 days after inoculation
Uromyces appendiculatus = assay: Uromyces test (bean)/protective; assay type: in vivo, Uromyces appendiculatus on bean; conditions: 100 ppm active compound, protective, evaluation 10 days after inoculation
[1] = system: Blumeria graminis f.sp. hordei; assay: Blumeria graminis test (barley)/protective; assay type: in vivo, Blumeria graminis f.sp. hordei on barley; conditions: 500 ppm active compound, protective, evaluation 7 days after inoculation
Venturia inaequalis = assay: Venturia test (apple)/protective; assay type: in vivo, Venturia inaequalis on apple; conditions: 100 ppm active compound, protective, evaluation 10 days after inoculation
Leptosphaeria nodorum = Leptosphaeria nodorum test (wheat)/protective; assay type: in vivo, Leptosphaeria nodorum on wheat; conditions: 500 ppm active compound, protective, evaluation 8 days after inoculation

Measured: efficacy

CC(C)(C)C(O)(COc1ccc(Br)c(F)c1F)c1cncnc1 (centres unmarked) [Compound 13]
≥ 70%: Sphaerotheca fitliginea | Uromyces appendiculatus | [1] | Venturia inaequalis | Leptosphaeria nodorum

Cc1cc(Br)ccc1OCC(O)(c1cncnc1)C(C)(C)C (centres unmarked) [Compound 12]
≥ 70%: Sphaerotheca fitliginea | Uromyces appendiculatus | [1] | Venturia inaequalis | Leptosphaeria nodorum

CC(C)(C)C(O)(CSc1cc(C(F)(F)F)ccc1Cl)Cn1cncn1 (centres unmarked) [Compound 1]
≥ 70%: Sphaerotheca fitliginea
